In PMC8490708:
No constants are given. Whether binding was seen depends on the method and setting. In cells and extracts the contact can be indirect. Some results given as binding are weak or reduced against the parent protein; the word gives no strength. For some assays here: Where a sequence is shown, tags or fusion partners need not be part of it.

T1: CBX4-YFP (human) (UniProt O00257)
T1 sequence: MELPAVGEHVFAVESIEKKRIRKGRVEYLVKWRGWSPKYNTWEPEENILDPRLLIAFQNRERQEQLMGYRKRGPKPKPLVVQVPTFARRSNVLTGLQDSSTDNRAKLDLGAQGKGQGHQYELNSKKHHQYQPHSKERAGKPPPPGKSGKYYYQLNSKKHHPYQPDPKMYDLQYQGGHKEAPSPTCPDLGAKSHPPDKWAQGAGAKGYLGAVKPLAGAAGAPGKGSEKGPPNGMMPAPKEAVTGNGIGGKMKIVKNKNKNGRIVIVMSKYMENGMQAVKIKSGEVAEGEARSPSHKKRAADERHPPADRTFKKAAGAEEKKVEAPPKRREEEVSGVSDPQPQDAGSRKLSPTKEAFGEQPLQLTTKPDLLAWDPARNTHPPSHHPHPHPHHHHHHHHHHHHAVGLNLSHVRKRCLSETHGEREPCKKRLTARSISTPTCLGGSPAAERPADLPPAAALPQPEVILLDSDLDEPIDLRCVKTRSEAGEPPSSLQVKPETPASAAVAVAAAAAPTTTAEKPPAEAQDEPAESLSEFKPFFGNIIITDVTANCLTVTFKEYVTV

T2: CBX4 (endogenous, U2OS) (human (endogenous in U2OS)) (UniProt O00257)
T2 sequence: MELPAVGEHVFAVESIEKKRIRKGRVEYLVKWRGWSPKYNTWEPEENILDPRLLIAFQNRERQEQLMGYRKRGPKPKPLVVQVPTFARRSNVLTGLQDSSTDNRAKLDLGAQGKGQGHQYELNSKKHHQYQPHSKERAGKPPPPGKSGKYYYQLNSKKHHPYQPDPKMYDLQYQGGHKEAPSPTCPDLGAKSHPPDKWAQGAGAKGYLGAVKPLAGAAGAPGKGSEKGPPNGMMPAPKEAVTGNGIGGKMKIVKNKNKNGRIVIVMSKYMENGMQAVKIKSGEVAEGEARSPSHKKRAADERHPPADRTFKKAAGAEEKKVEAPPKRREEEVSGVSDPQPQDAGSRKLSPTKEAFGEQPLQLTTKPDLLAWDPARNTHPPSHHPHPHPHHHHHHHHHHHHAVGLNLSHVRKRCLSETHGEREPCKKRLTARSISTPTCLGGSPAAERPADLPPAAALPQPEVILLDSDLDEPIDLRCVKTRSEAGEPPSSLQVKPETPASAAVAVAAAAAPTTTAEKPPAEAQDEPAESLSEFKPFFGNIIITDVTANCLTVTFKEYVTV


Columns and labels:
[1] = target: T1, CBX4-YFP (human); assay: pull-down; GFP-Trap co-pulldown: YFP-tagged bait and HA-tagged prey co-transfected in HEK 293FT cells; lysate (150 mM NaCl, 1% NP-40, 0.5% Triton X-100) with GFP-Trap resin overnight at 4°C; washes with 300 mM NaCl; Western blot
[2] = target: T2, CBX4 (endogenous, U2OS) (human (endogenous in U2OS)); assay: proximity ligation; Duolink In Situ Red PLA in U2OS cells transfected with CMV-SALL1-2xHA (pcDNA3 as control); mouse anti-SALL1 and rabbit anti-CBX4 primary antibodies; spots counted per cell

| binding [1] | binding [2] | Binder |
| --- | --- | --- |
| binds |  | SALL1-2xHA (protein, UniProt Q9NSC2 1-1324) MSRRKQAKPQHFQSDPEVASLPRRDGDTEKGQPSRPTKSKDAHVCGRCCAEFFELSDLLLHKKNCTKNQLVLIVNENPASPPETFSPSPPPDNPDEQMNDTVNKTDQVDCSDLSEHNGLDREESMEVEAPVANKSGSGTSSGSHSSTAPSSSSSSSSSSGGGGSSSTGTSAITTSLPQLGDLTTLGNFSVINSNVIIENLQSTKVAVAQFSQEARCGGASGGKLAVPALMEQLLALQQQQIHQLQLIEQIRHQILLLASQNADLPTSSSPSQGTLRTSANPLSTLSSHLSQQLAAAAGLAQSLASQSASISGVKQLPPIQLPQSSSGNTIIPSNSGSSPNMNILAAAVTTPSSEKVASSAGASHVSNPAVSSSSSPAFAISSLLSPASNPLLPQQASANSVFPSPLPNIGTTAEDLNSLSALAQQRKSKPPNVTAFEAKSTSDEAFFKHKCRFCAKVFGSDSALQIHLRSHTGERPFKCNICGNRFSTKGNLKVHFQRHKEKYPHIQMNPYPVPEHLDNIPTSTGIPYGMSIPPEKPVTSWLDTKPVLPTLTTSVGLPLPPTLPSLIPFIKTEEPAPIPISHSATSPPGSVKSDSGGPESATRNLGGLPEEAEGSTLPPSGGKSEESGMVTNSVPTASSSVLSSPAADCGPAGSATTFTNPLLPLMSEQFKAKFPFGGLLDSAQASETSKLQQLVENIDKKATDPNECIICHRVLSCQSALKMHYRTHTGERPFKCKICGRAFTTKGNLKTHYSVHRAMPPLRVQHSCPICQKKFTNAVVLQQHIRMHMGGQIPNTPVPDSYSESMESDTGSFDEKNFDDLDNFSDENMEDCPEGSIPDTPKSADASQDSLSSSPLPLEMSSIAALENQMKMINAGLAEQLQASLKSVENGSIEGDVLTNDSSSVGGDMESQSAGSPAISESTSSMQALSPSNSTQEFHKSPSIEEKPQRAVPSEFANGLSPTPVNGGALDLTSSHAEKIIKEDSLGILFPFRDRGKFKNTACDICGKTFACQSALDIHYRSHTKERPFICTVCNRGFSTKGNLKQHMLTHQMRDLPSQLFEPSSNLGPNQNSAVIPANSLSSLIKTEVNGFVHVSPQDSKDTPTSHVPSGPLSSSATSPVLLPALPRRTPKQHYCNTCGKTFSSSSALQIHERTHTGEKPFACTICGRAFTTKGNLKVHMGTHMWNSTPARRGRRLSVDGPMTFLGGNPVKFPEMFQKDLAARSGSGDPSSFWNQYAAALSNGLAMKANEISVIQNGGIPPIPGSLGSGNSSPVSGLTGNLERLQNSEPNAPLAGLEKMASSENGTNFRFTRFVEDSKEIVTS |
|  | binds | SALL1-2xHA (in U2OS cells) (protein, UniProt Q9NSC2 1-1324) MSRRKQAKPQHFQSDPEVASLPRRDGDTEKGQPSRPTKSKDAHVCGRCCAEFFELSDLLLHKKNCTKNQLVLIVNENPASPPETFSPSPPPDNPDEQMNDTVNKTDQVDCSDLSEHNGLDREESMEVEAPVANKSGSGTSSGSHSSTAPSSSSSSSSSSGGGGSSSTGTSAITTSLPQLGDLTTLGNFSVINSNVIIENLQSTKVAVAQFSQEARCGGASGGKLAVPALMEQLLALQQQQIHQLQLIEQIRHQILLLASQNADLPTSSSPSQGTLRTSANPLSTLSSHLSQQLAAAAGLAQSLASQSASISGVKQLPPIQLPQSSSGNTIIPSNSGSSPNMNILAAAVTTPSSEKVASSAGASHVSNPAVSSSSSPAFAISSLLSPASNPLLPQQASANSVFPSPLPNIGTTAEDLNSLSALAQQRKSKPPNVTAFEAKSTSDEAFFKHKCRFCAKVFGSDSALQIHLRSHTGERPFKCNICGNRFSTKGNLKVHFQRHKEKYPHIQMNPYPVPEHLDNIPTSTGIPYGMSIPPEKPVTSWLDTKPVLPTLTTSVGLPLPPTLPSLIPFIKTEEPAPIPISHSATSPPGSVKSDSGGPESATRNLGGLPEEAEGSTLPPSGGKSEESGMVTNSVPTASSSVLSSPAADCGPAGSATTFTNPLLPLMSEQFKAKFPFGGLLDSAQASETSKLQQLVENIDKKATDPNECIICHRVLSCQSALKMHYRTHTGERPFKCKICGRAFTTKGNLKTHYSVHRAMPPLRVQHSCPICQKKFTNAVVLQQHIRMHMGGQIPNTPVPDSYSESMESDTGSFDEKNFDDLDNFSDENMEDCPEGSIPDTPKSADASQDSLSSSPLPLEMSSIAALENQMKMINAGLAEQLQASLKSVENGSIEGDVLTNDSSSVGGDMESQSAGSPAISESTSSMQALSPSNSTQEFHKSPSIEEKPQRAVPSEFANGLSPTPVNGGALDLTSSHAEKIIKEDSLGILFPFRDRGKFKNTACDICGKTFACQSALDIHYRSHTKERPFICTVCNRGFSTKGNLKQHMLTHQMRDLPSQLFEPSSNLGPNQNSAVIPANSLSSLIKTEVNGFVHVSPQDSKDTPTSHVPSGPLSSSATSPVLLPALPRRTPKQHYCNTCGKTFSSSSALQIHERTHTGEKPFACTICGRAFTTKGNLKVHMGTHMWNSTPARRGRRLSVDGPMTFLGGNPVKFPEMFQKDLAARSGSGDPSSFWNQYAAALSNGLAMKANEISVIQNGGIPPIPGSLGSGNSSPVSGLTGNLERLQNSEPNAPLAGLEKMASSENGTNFRFTRFVEDSKEIVTS |
